In patent publication US20220306751A1 (MYTHIC THERAPEUTICS, published 2022) one finds binding data, which are given here for 25 molecules.

T1: CD123 Protein, His Tag, Acro Biosciences Cat. No. ILA-H52H6 (Homo sapiens (Human)) (UniProt P26951)
T1 sequence: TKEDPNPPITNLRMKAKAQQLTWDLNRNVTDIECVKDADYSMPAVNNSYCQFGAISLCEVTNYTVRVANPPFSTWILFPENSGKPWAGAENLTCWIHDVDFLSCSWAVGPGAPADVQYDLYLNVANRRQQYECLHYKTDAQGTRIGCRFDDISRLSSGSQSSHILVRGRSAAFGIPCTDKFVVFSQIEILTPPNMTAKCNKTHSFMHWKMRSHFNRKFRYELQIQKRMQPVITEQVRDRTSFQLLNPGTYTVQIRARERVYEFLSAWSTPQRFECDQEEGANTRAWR

T2: CD123 protein (R&D Systems Catalog No. 301-R3-025/CF) (Homo sapiens (Human)) (UniProt P26951)
T2 sequence: T1 sequence

B1: MYT2765 (antibody, V domains shown)
VH: QVQLVQSGAEVKKPGASVKVSCKASGHIFTSSIMAWVRQAPGQGLEWIGYIKPYNDGTKYNEKFKGRATLTSDRSTSTAYMELSSLRSEDTAVYYCAREGGNDYYDTMHYWGQGTLVTVSS
VL: DIQMTQSPSSLSASVGDRVTITCRASQDINSYLSWFQQKPGKAPKTLIYRVNRLVDGVPSRFSGSGSGNDYTLTISSLQPEDFATYYCLQYDAFPYTFGQGTKVEIK
B2: MYT2769 (antibody, V domains shown)
VH: B1 VH with H27Y, Y105H, T107H, H109D
VL: B1 VL
B3: MYT2768 (antibody, V domains shown)
VH: B1 VH with A35H, T107H
VL: B1 VL
B4: MYT2772 (antibody, V domains shown)
VH: B1 VH with H27Y, A35H, Y105H, T107H
VL: B1 VL
B5: MYT2766 (antibody, V domains shown)
VH: B1 VH with A35H, Y105H, T107H, H109D
VL: B1 VL
B6: MYT2770 (antibody, V domains shown)
VH: B1 VH with H27Y, Y105H
VL: B1 VL
B7: MYT2767 (antibody, V domains shown)
VH: B1 VH with A35H, Y105H
VL: B1 VL
B8: MYT2771 (antibody, V domains shown)
VH: B1 VH with H27Y, T107H
VL: B1 VL
B9: MYT5510 (antibody, V domains shown)
VH: EVQLLESGGGLVQPGGSLRLSCAVSDYSITSGYYWNWIRQAPGKKLEWMGYISYDGSNNYNPSLKNGRITISRDTSKNTFYLQMNSLRAEDTAVYYCARGEGFYFDSWGQGTLVTVSS
VL: EIVLTQSPGTLSLSPGERATLSCKSSQSLFFGSTQKNYLAWYQQKPGQAPRLLIYWASTRESGIPDRFSGSGSGTDFTLTISRLEPEDFAVYYCQQYYNYPHTFGQGTKLEIK
B10: MYT5491 (antibody, V domains shown)
VH: B9 VH
VL: B9 VL with K36H, H102W
B11: MYT5500 (antibody, V domains shown)
VH: B9 VH
VL: B9 VL with R60H, H102W
B12: MYT5506 (antibody, V domains shown)
VH: B9 VH
VL: B9 VL with Y98H, H102W
B13: MYT5497 (antibody, V domains shown)
VH: B9 VH
VL: B9 VL with A57H, H102W
B14: MYT5498 (antibody, V domains shown)
VH: B9 VH
VL: B9 VL with S58H, H102W
B15: MYT5483 (antibody, V domains shown)
VH: B9 VH
VL: B9 VL with S28H, H102W
B16: MYT5502 (antibody, V domains shown)
VH: B9 VH
VL: B9 VL with S62H, H102W
B17: MYT5492 (antibody, V domains shown)
VH: B9 VH
VL: B9 VL with N37H, H102W
B18: MYT5507 (antibody, V domains shown)
VH: B9 VH
VL: B9 VL with N99H, H102W
B19: MYT5482 (antibody, V domains shown)
VH: B9 VH
VL: B9 VL with Q27H, H102W
B20: MYT5490 (antibody, V domains shown)
VH: B9 VH
VL: B9 VL with Q35H, H102W
B21: MYT5501 (antibody, V domains shown)
VH: B9 VH
VL: B9 VL with E61H, H102W
B22: MYT5499 (antibody, V domains shown)
VH: B9 VH
VL: B9 VL with T59H, H102W
B23: MYT5508 (antibody, V domains shown)
VH: B9 VH
VL: B9 VL with Y100H, H102W
B24: MYT5511 (antibody, V domains shown)
VH: B9 VH
VL: B9 VL with H102W, T103H
B25: MYT5494 (antibody, V domains shown)
VH: B9 VH
VL: B9 VL with L39H, H102W

Positions count from the first letter of the chain named. No constants are given. Whether binding was seen depends on the method and setting. Some results given as binding are weak or reduced against the parent protein; the word gives no strength. For some of these results: Tags and fused reporters may be left off the sequences shown.

The target in one test is T1, CD123 Protein, His Tag, Acro Biosciences Cat. No. ILA-H52H6 (Homo sapiens (Human)). In words: BLI, IgG on anti-human Fc sensor, 50 nM CD123, pH 7.4 and pH 5.4.
For B1, the binding result is given as “binds”. Same read-out and setting: the result for B2 reads “binds”; that for B3, “binds”. The same measure, in the same setting: as for B4, the entry is “binds”; as for B5, “binds”.

For the molecule B6, the binding result is recorded as “binds”. In the case of B7, the binding entry is on record as “binds”. With B8, the binding entry is given as “binds”.

The target in a further test is T2, CD123 protein (R&D Systems Catalog No. 301-R3-025/CF) (Homo sapiens (Human)). The description is as above.
As to B9, the binding entry is recorded as “binds”. On the same count and under the same terms, the result for B10 reads “binds”. For B11, the binding entry is recorded as “binds”.

With B12, the binding entry is given as “binds”. Consider B13, for which the binding entry was “binds”. Consider B14, for which the binding entry is reported as “binds”. The same measure, in the same setting: the result for B15 reads “binds”; that for B16, “binds”; that for B17, “binds”. On the same count and under the same terms, the result for B18 reads “binds”; that for B19, “binds”. The same measure, in the same setting: as for B20, the entry is “binds”; as for B21, “binds”.

With B22, the binding result is reported as “binds”. B23: the binding result was “binds”. Still for that read-out and setting: as for B24, the entry is “binds”; as for B25, “binds”.
